Test results reported in publication PMC3738564.
These are yes or no findings as the source states them, for the method shown. Binding seen in cells or lysates may run through a third protein. Here binding means that the protein was enriched with, or labelled near, the bait; the list need not be complete. For some of these results: No binding means not detected with the bait.

Amino acid sequences for entries named in this document (tags omitted).
UniProt P11531: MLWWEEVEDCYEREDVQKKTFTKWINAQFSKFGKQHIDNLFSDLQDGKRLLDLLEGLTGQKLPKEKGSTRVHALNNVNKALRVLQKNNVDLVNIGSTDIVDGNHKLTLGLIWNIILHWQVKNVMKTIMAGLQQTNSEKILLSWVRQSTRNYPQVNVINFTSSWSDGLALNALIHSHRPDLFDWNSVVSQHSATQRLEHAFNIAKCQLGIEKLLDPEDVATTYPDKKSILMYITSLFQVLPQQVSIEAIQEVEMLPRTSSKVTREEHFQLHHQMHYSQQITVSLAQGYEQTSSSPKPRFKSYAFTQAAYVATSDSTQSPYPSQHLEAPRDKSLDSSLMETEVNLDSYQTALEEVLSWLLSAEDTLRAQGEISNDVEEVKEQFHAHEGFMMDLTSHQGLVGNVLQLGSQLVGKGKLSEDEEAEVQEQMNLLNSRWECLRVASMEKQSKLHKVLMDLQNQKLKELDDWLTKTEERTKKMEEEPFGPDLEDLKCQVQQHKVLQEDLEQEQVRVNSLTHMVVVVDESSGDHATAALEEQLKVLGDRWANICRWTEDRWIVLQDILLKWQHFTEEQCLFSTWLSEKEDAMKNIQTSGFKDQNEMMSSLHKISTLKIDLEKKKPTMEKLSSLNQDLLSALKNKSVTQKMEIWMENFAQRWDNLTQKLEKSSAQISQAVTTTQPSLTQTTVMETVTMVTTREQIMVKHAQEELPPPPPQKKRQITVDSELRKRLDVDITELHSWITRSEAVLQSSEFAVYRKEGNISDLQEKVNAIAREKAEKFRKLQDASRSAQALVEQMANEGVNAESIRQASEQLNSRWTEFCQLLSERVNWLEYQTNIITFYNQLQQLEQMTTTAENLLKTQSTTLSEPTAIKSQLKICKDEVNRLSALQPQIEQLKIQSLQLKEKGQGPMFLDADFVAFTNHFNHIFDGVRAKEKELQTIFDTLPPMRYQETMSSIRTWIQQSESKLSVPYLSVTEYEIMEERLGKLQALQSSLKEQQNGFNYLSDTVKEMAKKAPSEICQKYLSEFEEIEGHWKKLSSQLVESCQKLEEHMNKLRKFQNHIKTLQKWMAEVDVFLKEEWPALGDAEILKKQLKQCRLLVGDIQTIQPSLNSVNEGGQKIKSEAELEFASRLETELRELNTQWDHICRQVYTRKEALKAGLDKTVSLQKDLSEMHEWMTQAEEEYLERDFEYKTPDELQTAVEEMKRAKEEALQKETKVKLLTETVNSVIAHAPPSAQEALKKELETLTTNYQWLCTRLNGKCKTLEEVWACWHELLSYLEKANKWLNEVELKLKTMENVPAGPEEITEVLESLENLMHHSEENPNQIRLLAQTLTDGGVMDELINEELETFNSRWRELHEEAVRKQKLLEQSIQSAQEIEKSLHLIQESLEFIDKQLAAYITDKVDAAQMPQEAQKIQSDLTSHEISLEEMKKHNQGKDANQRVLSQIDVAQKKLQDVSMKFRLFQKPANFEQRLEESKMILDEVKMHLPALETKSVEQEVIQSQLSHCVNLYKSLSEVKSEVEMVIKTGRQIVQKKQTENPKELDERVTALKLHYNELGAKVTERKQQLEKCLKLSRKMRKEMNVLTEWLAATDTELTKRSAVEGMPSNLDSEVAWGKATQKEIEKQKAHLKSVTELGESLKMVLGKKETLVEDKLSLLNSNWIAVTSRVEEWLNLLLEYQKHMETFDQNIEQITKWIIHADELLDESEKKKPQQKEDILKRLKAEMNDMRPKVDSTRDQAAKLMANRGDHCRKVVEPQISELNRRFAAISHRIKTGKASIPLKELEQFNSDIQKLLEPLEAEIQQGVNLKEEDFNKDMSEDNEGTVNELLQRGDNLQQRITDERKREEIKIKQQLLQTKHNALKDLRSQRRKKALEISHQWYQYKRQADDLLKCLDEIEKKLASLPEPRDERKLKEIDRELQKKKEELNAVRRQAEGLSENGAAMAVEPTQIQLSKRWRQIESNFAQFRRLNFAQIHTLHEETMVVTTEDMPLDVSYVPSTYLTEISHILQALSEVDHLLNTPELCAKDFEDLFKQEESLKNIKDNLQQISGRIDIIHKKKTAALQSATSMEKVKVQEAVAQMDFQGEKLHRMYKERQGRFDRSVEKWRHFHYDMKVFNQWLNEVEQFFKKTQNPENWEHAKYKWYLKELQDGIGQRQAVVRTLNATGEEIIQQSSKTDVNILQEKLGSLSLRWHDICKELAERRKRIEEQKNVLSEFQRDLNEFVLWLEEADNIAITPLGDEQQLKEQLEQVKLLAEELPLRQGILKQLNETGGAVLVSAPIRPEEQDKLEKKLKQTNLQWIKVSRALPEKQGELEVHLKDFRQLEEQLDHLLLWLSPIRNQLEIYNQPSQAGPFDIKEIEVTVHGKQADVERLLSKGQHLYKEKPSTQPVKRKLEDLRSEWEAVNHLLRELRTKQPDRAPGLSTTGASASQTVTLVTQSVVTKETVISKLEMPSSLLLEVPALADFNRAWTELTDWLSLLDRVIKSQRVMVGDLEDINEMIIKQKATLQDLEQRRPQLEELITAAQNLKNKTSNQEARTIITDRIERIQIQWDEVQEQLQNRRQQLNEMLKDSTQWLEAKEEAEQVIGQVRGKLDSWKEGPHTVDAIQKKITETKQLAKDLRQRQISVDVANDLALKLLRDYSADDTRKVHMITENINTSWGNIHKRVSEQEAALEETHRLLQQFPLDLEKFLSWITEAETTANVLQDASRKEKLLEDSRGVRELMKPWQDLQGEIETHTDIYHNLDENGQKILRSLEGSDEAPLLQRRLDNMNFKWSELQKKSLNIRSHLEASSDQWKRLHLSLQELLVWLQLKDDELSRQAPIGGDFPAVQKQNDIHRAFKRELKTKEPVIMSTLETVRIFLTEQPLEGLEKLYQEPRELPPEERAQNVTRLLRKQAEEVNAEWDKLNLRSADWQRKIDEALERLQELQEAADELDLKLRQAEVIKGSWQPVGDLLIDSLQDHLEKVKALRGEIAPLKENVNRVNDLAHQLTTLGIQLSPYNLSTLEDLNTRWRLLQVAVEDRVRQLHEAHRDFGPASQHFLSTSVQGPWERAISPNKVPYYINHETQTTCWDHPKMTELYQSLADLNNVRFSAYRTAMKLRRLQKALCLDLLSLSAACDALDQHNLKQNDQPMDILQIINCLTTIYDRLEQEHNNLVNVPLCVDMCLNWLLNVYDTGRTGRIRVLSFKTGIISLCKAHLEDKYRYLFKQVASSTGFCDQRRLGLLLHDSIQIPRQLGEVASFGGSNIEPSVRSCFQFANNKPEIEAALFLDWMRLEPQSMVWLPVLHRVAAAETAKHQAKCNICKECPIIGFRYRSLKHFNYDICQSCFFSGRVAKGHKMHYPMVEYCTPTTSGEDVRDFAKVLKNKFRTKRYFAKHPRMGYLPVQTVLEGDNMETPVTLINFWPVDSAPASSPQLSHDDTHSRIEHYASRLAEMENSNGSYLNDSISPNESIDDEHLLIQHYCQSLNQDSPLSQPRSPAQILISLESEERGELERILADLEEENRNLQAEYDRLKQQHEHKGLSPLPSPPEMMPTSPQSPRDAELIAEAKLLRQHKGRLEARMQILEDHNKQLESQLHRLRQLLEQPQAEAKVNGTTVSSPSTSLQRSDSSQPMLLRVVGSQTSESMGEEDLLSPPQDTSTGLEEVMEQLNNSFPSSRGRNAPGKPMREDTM
UniProt Q9QWL7: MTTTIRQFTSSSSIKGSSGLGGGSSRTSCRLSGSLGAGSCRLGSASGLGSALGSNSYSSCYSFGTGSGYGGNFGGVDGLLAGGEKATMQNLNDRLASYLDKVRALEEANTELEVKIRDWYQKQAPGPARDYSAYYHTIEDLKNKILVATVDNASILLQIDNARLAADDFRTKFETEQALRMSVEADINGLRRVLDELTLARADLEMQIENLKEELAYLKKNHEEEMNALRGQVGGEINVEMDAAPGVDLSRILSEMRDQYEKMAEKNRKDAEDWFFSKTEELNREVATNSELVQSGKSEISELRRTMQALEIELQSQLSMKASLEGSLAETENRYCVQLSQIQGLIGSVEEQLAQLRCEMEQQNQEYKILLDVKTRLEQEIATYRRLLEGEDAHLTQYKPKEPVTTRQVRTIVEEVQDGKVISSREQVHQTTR

T1: β-dystroglycan (mouse (endogenous in skeletal muscle)) (UniProt Q62165)
T1 sequence: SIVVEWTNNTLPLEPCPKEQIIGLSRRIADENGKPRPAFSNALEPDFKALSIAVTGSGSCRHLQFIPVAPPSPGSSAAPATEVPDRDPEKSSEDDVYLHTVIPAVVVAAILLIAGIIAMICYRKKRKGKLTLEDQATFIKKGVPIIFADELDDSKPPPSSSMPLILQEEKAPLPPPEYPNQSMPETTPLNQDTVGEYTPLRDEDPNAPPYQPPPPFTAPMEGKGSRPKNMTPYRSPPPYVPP

B1: Polymerase I and transcript release factor (Cavin-1) (protein, UniProt O54724 1-392)
chain: MEDVTLHIVERPYSGFPDASSEGPEPTQGEARATEEPSGTGSDELIKSDQVNGVLVLSLLDKIIGAVDQIQLTQAQLEERQAEMEGAVQSIQGELSKLGKAHATTSNTVSKLLEKVRKVSVNVKTVRGSLERQAGQIKKLEVNEAELLRRRNFKVMIYQDEVKLPAKLSVSKSLKESEALPEKEGDELGEGERPEDDTAAIELSSDEAVEVEEVIEESRAERIKRSGLRRVDDFKKAFSKEKMEKTKVRTRENLEKTRLKTKENLEKTRHTLEKRMNKLGTRLVPVERREKLKTSRDKLRKSFTPDHVVYARSKTAVYKVPPFTFHVKKIREGEVEVLKATEMVEVGPEDDEVGAERGEATDLLRGSSPDVHTLLEITEESDAVLVDKSDSD
B2: β2-syntrophin, Q61235 1-520 (protein)
chain: MAVWTRATKAGLVELLLRERWVRVVAELSGESLSLTGDAAAVEPEPPAAAFNGLPNGGGGESLPGSPNRGLGPPSPPAPPRGPAGEASASPPVRRVRVVKQEAGGLGISIKGGRENRMPILISKIFPGLAADQSRALRLGDAILSVNGTDLRQATHDQAVQALKRAGKEVLLEVKFIREVTPYIKKPSLVSDLPWEGASPQSPSFSGSEDSGSPKHQNTTKDRKVIPLKMCFAARNLSMPDLENRLIELHSPDSRNTLILRCKDTATAHSWFVAIHTNIMALLPQVLAELNAMLGATSTAGGSKEVKHIAWLAEQAKLDGGRQQWRPVLMAVTEKDLLLYDCMPWTRDAWASPCHSYPLVATRLVHSGSGCRSPSLGSDLTFATRTGSRQGIEMHLFRVETHRDLSTWTRILVQGCHAAAELIKEVSLGCTLSGQEVRFTVHYEHGFTITRDNGGASSILYRYPFERLKMSADDGIRNLYLDFGGPEGELTMDLHSCPKPIVFVLHTFLSAKVTRMGLLV

What was measured:
[1] = biological target: T1, β-dystroglycan (mouse (endogenous in skeletal muscle)); test: affinity purification with mass spectrometry; 4 β-dystroglycan immunoprecipitations (MANDAG2) from wild type quadriceps; LC-MS/MS on LTQ Orbitrap; proteins of control immunoprecipitations subtracted
[2] = biological target: full length (427 kDa) dystrophin (mouse (endogenous in skeletal muscle)) (UniProt P11531); test: affinity purification with mass spectrometry; 3 dystrophin immunoprecipitations (MANDYS1) from wild type quadriceps; LC-MS/MS on LTQ Orbitrap; proteins of control immunoprecipitations subtracted
[3] = biological target: full length (427 kDa) dystrophin (mouse (endogenous in skeletal muscle)), P11531; test: as above; conditions: remark: other sources report otherwise

| Molecule | binding [1] | binding [2] | binding [3] |
| --- | --- | --- | --- |
| Keratin, type I cytoskeletal 17 (from UniProt Q9QWL7 1-433) | binds | no binding |  |
| B1 | binds |  |  |
| B2 |  |  | no binding |
